Experimental data published in the supplement of paper PMC10849652.
The list shows a part of the results.

Chains of the proteins cited; added tags and fusions are not shown. Lines headed by an entry give the natural chain unless they say otherwise; changes in a name come on top.
UniProt Q5T447: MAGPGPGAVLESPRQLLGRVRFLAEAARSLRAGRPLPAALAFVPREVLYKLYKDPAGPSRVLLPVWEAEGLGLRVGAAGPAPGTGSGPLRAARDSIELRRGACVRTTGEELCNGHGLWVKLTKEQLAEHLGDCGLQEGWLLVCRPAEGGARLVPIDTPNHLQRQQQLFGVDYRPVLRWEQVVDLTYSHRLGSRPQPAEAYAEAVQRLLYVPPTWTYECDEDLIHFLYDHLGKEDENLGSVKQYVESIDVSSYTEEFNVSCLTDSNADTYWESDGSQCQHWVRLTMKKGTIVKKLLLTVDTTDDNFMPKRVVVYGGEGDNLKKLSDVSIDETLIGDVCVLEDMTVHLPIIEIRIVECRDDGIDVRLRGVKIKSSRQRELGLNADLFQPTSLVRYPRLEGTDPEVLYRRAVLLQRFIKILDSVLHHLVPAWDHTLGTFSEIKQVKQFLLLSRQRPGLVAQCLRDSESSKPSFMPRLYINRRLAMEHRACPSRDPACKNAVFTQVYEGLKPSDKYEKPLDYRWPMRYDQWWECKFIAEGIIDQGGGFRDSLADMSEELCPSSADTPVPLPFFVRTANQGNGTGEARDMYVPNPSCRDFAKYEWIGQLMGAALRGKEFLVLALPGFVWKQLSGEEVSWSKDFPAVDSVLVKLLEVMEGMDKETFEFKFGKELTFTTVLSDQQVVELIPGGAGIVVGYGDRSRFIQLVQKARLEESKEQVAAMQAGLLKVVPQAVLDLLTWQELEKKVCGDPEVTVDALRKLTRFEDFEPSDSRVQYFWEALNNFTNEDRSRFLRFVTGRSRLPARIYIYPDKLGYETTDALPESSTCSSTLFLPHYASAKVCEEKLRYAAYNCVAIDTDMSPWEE
UniProt Q6PII5: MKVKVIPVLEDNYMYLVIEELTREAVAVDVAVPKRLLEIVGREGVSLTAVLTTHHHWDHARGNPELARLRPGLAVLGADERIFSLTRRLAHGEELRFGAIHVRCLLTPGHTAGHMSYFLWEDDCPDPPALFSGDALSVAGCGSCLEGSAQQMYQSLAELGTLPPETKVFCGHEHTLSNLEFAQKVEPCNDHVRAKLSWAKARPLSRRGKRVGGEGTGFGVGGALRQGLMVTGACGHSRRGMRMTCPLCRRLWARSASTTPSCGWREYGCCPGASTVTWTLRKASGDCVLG
UniProt Q9Y5Q8: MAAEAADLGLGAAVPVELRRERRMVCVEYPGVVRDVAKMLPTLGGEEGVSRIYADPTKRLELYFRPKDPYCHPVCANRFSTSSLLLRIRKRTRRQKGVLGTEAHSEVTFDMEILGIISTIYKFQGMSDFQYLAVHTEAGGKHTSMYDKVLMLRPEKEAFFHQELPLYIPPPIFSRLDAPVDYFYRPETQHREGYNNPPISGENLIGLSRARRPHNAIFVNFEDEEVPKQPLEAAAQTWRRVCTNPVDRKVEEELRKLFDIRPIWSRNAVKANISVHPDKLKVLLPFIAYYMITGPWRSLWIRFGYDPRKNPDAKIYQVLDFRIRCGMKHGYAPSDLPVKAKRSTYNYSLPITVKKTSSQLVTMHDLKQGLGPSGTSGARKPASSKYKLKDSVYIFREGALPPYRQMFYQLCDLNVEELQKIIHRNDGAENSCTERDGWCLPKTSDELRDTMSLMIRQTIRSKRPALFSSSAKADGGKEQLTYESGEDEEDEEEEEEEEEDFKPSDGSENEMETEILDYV
UniProt Q7Z4Q2: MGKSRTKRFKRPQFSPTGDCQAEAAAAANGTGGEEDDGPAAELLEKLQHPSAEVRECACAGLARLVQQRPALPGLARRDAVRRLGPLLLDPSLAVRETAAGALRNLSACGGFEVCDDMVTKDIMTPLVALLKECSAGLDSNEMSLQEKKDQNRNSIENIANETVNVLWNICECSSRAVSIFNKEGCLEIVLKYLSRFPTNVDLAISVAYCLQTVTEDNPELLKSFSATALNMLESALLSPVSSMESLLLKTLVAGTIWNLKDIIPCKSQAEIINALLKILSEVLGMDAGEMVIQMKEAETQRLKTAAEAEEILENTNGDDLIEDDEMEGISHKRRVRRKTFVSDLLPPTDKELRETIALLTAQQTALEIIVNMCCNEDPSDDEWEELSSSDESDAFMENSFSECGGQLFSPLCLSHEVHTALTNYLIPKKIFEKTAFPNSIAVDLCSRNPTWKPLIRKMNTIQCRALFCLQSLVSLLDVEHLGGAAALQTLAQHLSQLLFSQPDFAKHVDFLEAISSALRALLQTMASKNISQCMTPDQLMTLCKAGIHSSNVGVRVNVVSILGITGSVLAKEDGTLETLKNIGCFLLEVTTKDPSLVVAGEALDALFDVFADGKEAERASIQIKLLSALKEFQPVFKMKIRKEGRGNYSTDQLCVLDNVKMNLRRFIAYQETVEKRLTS
UniProt P46439: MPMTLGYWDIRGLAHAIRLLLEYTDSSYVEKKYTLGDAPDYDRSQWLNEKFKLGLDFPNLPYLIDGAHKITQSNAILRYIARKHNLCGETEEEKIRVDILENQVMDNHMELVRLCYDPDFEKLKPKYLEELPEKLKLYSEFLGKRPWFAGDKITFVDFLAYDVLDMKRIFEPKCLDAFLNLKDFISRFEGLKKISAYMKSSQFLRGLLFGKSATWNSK
UniProt A4D1E9: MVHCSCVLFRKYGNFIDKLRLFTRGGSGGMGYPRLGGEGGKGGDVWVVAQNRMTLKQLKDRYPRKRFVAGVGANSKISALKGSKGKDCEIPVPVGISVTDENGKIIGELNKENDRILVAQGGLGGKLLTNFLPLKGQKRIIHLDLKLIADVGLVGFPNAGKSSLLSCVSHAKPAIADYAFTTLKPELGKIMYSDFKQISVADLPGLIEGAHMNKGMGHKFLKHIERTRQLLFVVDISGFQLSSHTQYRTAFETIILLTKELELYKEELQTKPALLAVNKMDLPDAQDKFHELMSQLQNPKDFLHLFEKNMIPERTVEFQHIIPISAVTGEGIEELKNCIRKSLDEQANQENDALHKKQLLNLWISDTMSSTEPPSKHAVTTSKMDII
UniProt P55084: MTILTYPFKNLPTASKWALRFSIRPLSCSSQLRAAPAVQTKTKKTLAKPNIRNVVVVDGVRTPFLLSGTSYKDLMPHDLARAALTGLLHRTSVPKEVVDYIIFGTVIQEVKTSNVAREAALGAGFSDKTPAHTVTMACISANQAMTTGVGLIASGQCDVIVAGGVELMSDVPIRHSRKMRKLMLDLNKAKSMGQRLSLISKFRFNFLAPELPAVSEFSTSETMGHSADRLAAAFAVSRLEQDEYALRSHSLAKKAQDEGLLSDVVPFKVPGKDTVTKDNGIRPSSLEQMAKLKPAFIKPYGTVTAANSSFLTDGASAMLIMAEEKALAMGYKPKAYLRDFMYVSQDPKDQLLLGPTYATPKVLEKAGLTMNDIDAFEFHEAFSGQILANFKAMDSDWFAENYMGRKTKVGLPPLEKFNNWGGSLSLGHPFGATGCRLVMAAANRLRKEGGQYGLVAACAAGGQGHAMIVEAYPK
UniProt Q00403, whole entry, looked up: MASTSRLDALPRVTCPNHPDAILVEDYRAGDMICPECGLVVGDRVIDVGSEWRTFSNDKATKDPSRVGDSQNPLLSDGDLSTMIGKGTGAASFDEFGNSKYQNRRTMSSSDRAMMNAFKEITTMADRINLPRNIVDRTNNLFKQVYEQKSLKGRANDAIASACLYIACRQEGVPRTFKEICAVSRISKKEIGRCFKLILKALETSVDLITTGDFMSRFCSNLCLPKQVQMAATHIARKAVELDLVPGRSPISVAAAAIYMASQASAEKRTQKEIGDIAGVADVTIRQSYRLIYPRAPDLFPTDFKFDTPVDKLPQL
UniProt Q12789: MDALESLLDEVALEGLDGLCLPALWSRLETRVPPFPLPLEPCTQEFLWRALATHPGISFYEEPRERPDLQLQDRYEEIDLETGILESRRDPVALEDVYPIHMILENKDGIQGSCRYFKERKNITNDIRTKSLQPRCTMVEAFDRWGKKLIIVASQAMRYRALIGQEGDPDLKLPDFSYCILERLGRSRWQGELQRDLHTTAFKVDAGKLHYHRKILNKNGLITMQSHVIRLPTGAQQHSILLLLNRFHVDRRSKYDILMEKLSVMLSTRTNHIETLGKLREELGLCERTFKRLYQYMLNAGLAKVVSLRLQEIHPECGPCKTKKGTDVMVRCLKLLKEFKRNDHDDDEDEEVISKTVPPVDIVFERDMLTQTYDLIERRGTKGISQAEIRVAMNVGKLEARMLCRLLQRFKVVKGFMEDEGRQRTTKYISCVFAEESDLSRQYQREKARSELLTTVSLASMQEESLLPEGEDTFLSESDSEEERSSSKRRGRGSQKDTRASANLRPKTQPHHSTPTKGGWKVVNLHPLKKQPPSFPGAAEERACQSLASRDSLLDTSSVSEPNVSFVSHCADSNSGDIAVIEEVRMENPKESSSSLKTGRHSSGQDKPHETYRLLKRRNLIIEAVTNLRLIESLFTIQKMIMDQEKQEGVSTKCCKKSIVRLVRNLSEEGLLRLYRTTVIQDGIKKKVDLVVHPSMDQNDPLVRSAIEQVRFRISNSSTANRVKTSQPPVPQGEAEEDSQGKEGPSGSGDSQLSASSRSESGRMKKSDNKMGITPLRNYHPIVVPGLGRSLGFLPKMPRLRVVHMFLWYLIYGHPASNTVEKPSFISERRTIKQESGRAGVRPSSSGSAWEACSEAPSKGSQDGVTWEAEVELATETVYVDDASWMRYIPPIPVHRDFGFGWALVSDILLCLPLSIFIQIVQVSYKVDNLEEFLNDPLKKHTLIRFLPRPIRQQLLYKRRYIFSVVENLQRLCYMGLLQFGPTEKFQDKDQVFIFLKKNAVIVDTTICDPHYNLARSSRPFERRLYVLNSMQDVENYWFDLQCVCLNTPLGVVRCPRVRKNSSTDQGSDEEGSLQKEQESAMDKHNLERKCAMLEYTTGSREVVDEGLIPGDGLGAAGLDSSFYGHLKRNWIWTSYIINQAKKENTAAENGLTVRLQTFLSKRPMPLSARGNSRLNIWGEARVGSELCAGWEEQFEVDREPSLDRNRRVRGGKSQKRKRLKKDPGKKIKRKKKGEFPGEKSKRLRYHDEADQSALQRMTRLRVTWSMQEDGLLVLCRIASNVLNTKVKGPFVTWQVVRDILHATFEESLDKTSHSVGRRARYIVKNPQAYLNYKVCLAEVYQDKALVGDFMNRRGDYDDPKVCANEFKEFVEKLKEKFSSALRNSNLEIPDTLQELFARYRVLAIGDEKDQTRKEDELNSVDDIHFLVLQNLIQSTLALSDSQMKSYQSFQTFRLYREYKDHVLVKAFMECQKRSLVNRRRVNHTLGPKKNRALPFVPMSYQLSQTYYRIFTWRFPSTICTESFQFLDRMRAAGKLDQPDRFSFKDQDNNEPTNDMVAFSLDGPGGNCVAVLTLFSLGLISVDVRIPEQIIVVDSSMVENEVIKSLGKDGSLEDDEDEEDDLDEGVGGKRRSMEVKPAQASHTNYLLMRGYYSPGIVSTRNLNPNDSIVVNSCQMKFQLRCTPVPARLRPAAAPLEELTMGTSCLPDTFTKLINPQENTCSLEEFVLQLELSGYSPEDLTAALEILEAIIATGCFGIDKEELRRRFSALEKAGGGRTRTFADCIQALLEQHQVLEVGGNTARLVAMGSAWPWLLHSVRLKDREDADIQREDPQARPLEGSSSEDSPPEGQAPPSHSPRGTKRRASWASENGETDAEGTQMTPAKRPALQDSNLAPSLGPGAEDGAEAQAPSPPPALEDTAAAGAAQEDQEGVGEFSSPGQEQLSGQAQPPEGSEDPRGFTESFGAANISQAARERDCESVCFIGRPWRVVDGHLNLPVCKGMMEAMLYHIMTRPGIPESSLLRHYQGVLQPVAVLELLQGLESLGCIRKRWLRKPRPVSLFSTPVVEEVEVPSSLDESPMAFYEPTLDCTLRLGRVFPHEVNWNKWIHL
UniProt Q8IYD1, whole entry, looked up: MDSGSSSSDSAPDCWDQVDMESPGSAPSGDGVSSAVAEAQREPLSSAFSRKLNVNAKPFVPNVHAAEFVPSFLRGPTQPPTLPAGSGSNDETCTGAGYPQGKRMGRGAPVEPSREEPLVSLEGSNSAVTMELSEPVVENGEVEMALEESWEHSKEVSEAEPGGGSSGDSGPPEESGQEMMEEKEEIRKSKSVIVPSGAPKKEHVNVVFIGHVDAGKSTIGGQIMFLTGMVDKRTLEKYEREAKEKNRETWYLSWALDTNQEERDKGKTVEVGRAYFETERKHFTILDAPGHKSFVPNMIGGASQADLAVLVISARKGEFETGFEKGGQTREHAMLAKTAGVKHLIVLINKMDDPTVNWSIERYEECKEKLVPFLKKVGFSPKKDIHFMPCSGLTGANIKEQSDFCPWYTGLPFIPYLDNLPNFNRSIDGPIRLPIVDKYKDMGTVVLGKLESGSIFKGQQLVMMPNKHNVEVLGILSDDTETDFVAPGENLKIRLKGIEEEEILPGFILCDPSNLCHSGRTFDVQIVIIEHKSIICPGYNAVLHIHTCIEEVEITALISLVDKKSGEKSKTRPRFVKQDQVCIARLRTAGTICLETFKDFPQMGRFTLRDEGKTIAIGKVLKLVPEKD

How the values were obtained:
Test in all cases: log2 fold change, soluble protein after heating vs DMSO (PISA); higher = thermal stabilisation; K562 cells, 10 uM, 30 min; active = over 0.2 and 3.5 SD of the protein, either way, in both replicates (recomputed)
[1] = compound: CS(=O)(=O)c1ccc(-c2cnc(N)c(C(=O)Nc3ccccc3)n2)cc1
Method in brief: (§1)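 Soluble protein was quantified by TMTpro 16plex LC-MS/MS after channel sums were equalised. It was obtained as the supernatant after 21,000xg for 90 min from pooled aliquots of K562 cells (2×10^6 cells/mL, 10 μM compound, 30 min) heated for 3 min across 48°C-58°C and extracted in PBS with 0.5% NP-40 at 4°C. Thermal stability values are relative to control samples and come from duplicates. They are given as log2 fold changes.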

[2] = compound: C[C@@H](Oc1cc(-c2cnn(C3CCNCC3)c2)cnc1N)c1c(Cl)ccc(F)c1Cl [crizotinib]
Method in brief: as §1

[3] = compound: C[C@@H]1COCCN1C2=NC(=NC(=C2)C3(CC3)S(=O)(=O)C)C4=C5C=CNC5=CC=C4
Method in brief: as §1

[4] = compound: C[C@H](C1=CC=C(C=C1)C(=O)NC2=C3C=CNC3=NC=C2)N
Method in brief: as §1

[5] = compound: C[C@H](Nc1ncnc2nc[nH]c12)c1cc2cccc(Cl)c2c(=O)n1-c1ccccc1 [duvelisib]
Method in brief: as §1

[6] = compound: Cc1cc(Nc2cc(N3CCN(C)CC3)nc(Sc3ccc(NC(=O)C4CC4)cc3)n2)n[nH]1 [tozasertib]
Method in brief: as §1

[7] = compound: Cc1cc(SCc2sc(-c3ccc(C(F)(F)F)cc3)nc2C)ccc1OCC(=O)O
Method in brief: as §1

[8] = compound: Cc1ccc(-n2nc(C(C)(C)C)cc2NC(=O)Nc2ccc(OCCN3CCOCC3)c3ccccc23)cc1 [doramapimod]
Method in brief: as §1

[9] = compound: Cc1ccc(C(=O)N(CCCN)[C@@H](c2nc3cc(Cl)ccc3c(=O)n2Cc2ccccc2)C(C)C)cc1 [ispinesib]
Method in brief: as §1

[10] = compound: Cc1ccc(NC(=O)c2ccc(CN3CC[C@H](N(C)C)C3)c(C(F)(F)F)c2)cc1Nc1nccc(-c2cncnc2)n1 [bafetinib]
Method in brief: as §1

[11] = compound: Cc1cn(-c2cc(NC(=O)c3ccc(C)c(Nc4nccc(-c5cccnc5)n4)c3)cc(C(F)(F)F)c2)cn1 [nilotinib]
Method in brief: as §1

[12] = compound: Cc1nc(Nc2n[nH]c3c2CN(C(=O)N[C@H](CN(C)C)c2ccccc2)C3(C)C)c2sccc2n1
Method in brief: as §1

[13] = compound: Cc1nc(Nc2ncc(C(=O)Nc3c(C)cccc3Cl)s2)cc(N2CCN(CCO)CC2)n1 [dasatinib]
Method in brief: as §1

[14] = compound: Cc1ncc(-c2ccnc(Nc3ccc(S(C)(=O)=O)cc3)n2)n1C(C)C
Method in brief: as §1

[15] = compound: Cn1cc(-c2ccc3c(c2)CCN3C(=O)Cc2cccc(C(F)(F)F)c2)c2c(N)ncnc21
Method in brief: as §1

[16] = compound: Cn1cc(-c2ccc3nnc(C(F)(F)c4ccc5ncccc5c4)n3n2)cn1
Method in brief: as §1

[17] = compound: Cn1cncc1[C@@](N)(c1ccc(Cl)cc1)c1ccc2c(c1)c(-c1cccc(Cl)c1)cc(=O)n2C [tipifarnib]
Method in brief: as §1

[18] = compound: FC(F)(F)c1ccc(/C=C/c2nc(COc3ccc(CCCCn4ccnn4)cc3)co2)cc1 [mubritinib]
Method in brief: as §1

[19] = compound: Cc1cc(Nc2cc(CN3CCOCC3)c3nc(C)c(Cc4ccc(Cl)cc4F)n3n2)n[nH]1 [gandotinib]
Method in brief: as §1

[20] = compound: Cc1cccc(CC(=O)N2CCc3c2ccc(-c2cn(C)c4ncnc(N)c24)c3F)n1
Method in brief: as §1

| Target | log2 fold change [1] | log2 fold change [2] | log2 fold change [3] | log2 fold change [4] | log2 fold change [5] | log2 fold change [6] | log2 fold change [7] | log2 fold change [8] | log2 fold change [9] | log2 fold change [10] | log2 fold change [11] | log2 fold change [12] | log2 fold change [13] | log2 fold change [14] | log2 fold change [15] | log2 fold change [16] | log2 fold change [17] | log2 fold change [18] | log2 fold change [19] | log2 fold change [20] |
| --- | --- | --- | --- | --- | --- | --- | --- | --- | --- | --- | --- | --- | --- | --- | --- | --- | --- | --- | --- | --- |
| HECTD3 (UniProt Q5T447) | inactive: 0.101 | inactive: -0.121 | inactive: -0.137 | inactive: 0.092 | inactive: 0.009 | inactive: 0.01 | inactive: 0.132 | inactive: -0.047 | inactive: -0.028 | inactive: -0.008 | inactive: -0.018 | inactive: -0.018 | inactive: -0.073 | inactive: 0.018 | inactive: -0.091 | inactive: -0.075 | inactive: 0.031 | inactive: 0.057 | – | – |
| HAGHL isoform 2 (UniProt Q6PII5) | inactive: -0.117 | inactive: -0.075 | inactive: -0.004 | inactive: 0.012 | inactive: 0.115 | – | inactive: -0.076 | inactive: -0.009 | inactive: 0.137 | inactive: -0.013 | inactive: 0.06 | inactive: 0.163 | inactive: 0.134 | inactive: -0.017 | inactive: 0.15 | inactive: -0.06 | – | inactive: -0.175 | – | – |
| GTF3C5 isoform 3 (UniProt Q9Y5Q8) | inactive: 0.01 | inactive: 0.17 | inactive: 0.016 | inactive: 0.158 | – | – | inactive: 0.034 | inactive: 0.095 | inactive: -0.248 | inactive: 0.028 | inactive: -0.04 | inactive: -0.167 | inactive: -0.269 | inactive: -0.137 | inactive: 0.027 | inactive: -0.063 | inactive: 0.01 | inactive: 0.065 | inactive: 0.043 | inactive: -0.013 |
| HEATR3 (UniProt Q7Z4Q2) | inactive: -0.001 | inactive: -0.171 | inactive: 0.094 | inactive: 0.123 | – | – | inactive: 0.146 | inactive: 0.011 | inactive: -0.006 | inactive: 0.058 | inactive: -0.045 | inactive: -0.088 | inactive: -0.073 | inactive: -0.073 | inactive: -0.008 | inactive: 0.138 | inactive: -0.011 | inactive: -0.079 | inactive: -0.377 | active: 0.389 |
| GSTM5 (UniProt P46439) | inactive: -0.224 | inactive: -0.054 | inactive: 0.028 | inactive: -0.074 | inactive: 0.077 | inactive: -0.083 | inactive: 0.072 | inactive: 0.249 | – | inactive: 0.016 | inactive: -0.071 | inactive: 0.042 | inactive: -0.005 | inactive: 0.082 | inactive: 0.025 | – | inactive: -0.008 | inactive: -0.062 | inactive: 0.124 | inactive: 0.003 |
| HDAC2 (UniProt Q92769) | inactive: -0.01 | inactive: 0.08 | inactive: -0.02 | inactive: -0.046 | – | – | inactive: -0.029 | inactive: 0.011 | inactive: 0.072 | inactive: 0.137 | inactive: -0.01 | inactive: 0.009 | inactive: 0.007 | inactive: -0.002 | inactive: -0.01 | inactive: -0.001 | inactive: 0.027 | inactive: 0.015 | inactive: 0.003 | inactive: -0.046 |
| GTPBP10 (UniProt A4D1E9) | inactive: -0.186 | inactive: 0.197 | inactive: 0.018 | inactive: 0.301 | inactive: -0.022 | inactive: 0.053 | inactive: 0.001 | inactive: -0.021 | inactive: -0.109 | inactive: 0.124 | inactive: -0.288 | inactive: -0.009 | inactive: 0.007 | inactive: -0.176 | inactive: -0.092 | inactive: -0.082 | inactive: 0.089 | inactive: -0.223 | inactive: -0.228 | inactive: 0.038 |
| HADHB (UniProt P55084) | inactive: -0.087 | inactive: 0.109 | inactive: 0.099 | inactive: -0.023 | – | – | inactive: 0.138 | inactive: 0.167 | inactive: 0.199 | inactive: 0.251 | inactive: 0.074 | inactive: -0.106 | inactive: -0.072 | inactive: 0.032 | inactive: 0.155 | inactive: 0.108 | inactive: -0.264 | active: 0.571 | inactive: 0.083 | inactive: 0.132 |
| GTF2B (UniProt Q00403) | inactive: -0.007 | inactive: -0.044 | inactive: 0.115 | inactive: 0.001 | – | – | inactive: 0.127 | inactive: -0.044 | inactive: -0.091 | inactive: -0.005 | inactive: -0.134 | inactive: -0.13 | inactive: -0.247 | inactive: 0.006 | inactive: 0.031 | inactive: 0.102 | inactive: -0.082 | inactive: 0.007 | inactive: -0.146 | inactive: 0.139 |
| HDAC4 (UniProt P56524) | inactive: -0.025 | inactive: -0.061 | inactive: 0.005 | inactive: 0.298 | – | inactive: -0.027 | – | inactive: 0.029 | inactive: 0.196 | inactive: 0.032 | inactive: 0.179 | inactive: -0.101 | – | inactive: -0.03 | inactive: -0.183 | inactive: 0.196 | inactive: 0.044 | inactive: 0.036 | inactive: -0.298 | inactive: 0.066 |
| GTPBP1 (UniProt O00178) | inactive: -0.015 | inactive: -0.001 | inactive: 0.043 | inactive: 0.022 | inactive: -0.013 | inactive: -0.007 | inactive: 0.014 | inactive: 0.024 | inactive: -0.017 | inactive: -0.043 | inactive: -0.158 | inactive: -0.001 | inactive: -0.04 | inactive: 0.001 | inactive: -0.013 | inactive: 0.027 | inactive: 0.012 | inactive: -0.123 | inactive: 0 | inactive: 0.037 |
| HDDC3 (UniProt Q8N4P3) | inactive: 0.036 | inactive: -0.012 | inactive: 0.053 | inactive: -0.042 | inactive: 0.135 | inactive: -0.001 | inactive: -0.06 | inactive: 0.009 | inactive: 0.006 | inactive: -0.106 | inactive: -0.009 | inactive: -0.011 | inactive: 0.084 | inactive: 0.017 | inactive: 0.012 | inactive: 0.051 | inactive: -0.009 | inactive: 0.019 | inactive: 0.035 | inactive: -0.02 |
| GTF3C1 (UniProt Q12789) | inactive: -0.159 | inactive: -0.234 | inactive: 0.04 | inactive: 0.303 | inactive: 0.17 | inactive: 0.018 | inactive: 0.01 | inactive: 0.173 | inactive: -0.352 | inactive: 0.068 | inactive: -0.357 | inactive: 0.117 | inactive: 0.017 | inactive: -0.213 | inactive: -0.256 | inactive: 0.102 | inactive: 0.025 | inactive: 0.079 | inactive: 0.1 | inactive: 0.24 |
| H1-3 (UniProt P16402) | inactive: -0.086 | inactive: 0.023 | inactive: -0.638 | inactive: 0.294 | inactive: -0.169 | inactive: -0.05 | inactive: 0.025 | inactive: 0.25 | inactive: -0.085 | inactive: 0.392 | inactive: 0.054 | inactive: 0.037 | inactive: 0.147 | inactive: -0.058 | inactive: -0.292 | inactive: -0.134 | inactive: 0.076 | inactive: -0.184 | inactive: 0.26 | inactive: -0.022 |
| GSTM2 (UniProt P28161) | inactive: 0.087 | inactive: -0.075 | inactive: 0.013 | inactive: -0.086 | – | inactive: -0.139 | – | inactive: -0.076 | inactive: -0.011 | inactive: -0.063 | inactive: 0.001 | inactive: 0.025 | – | inactive: -0.036 | inactive: 0.062 | inactive: 0.111 | inactive: 0.088 | inactive: -0.028 | inactive: 0.125 | inactive: -0.124 |
| HAGHL (UniProt Q6PII5) | inactive: -0.103 | inactive: -0.124 | inactive: 0.07 | inactive: 0.021 | inactive: 0.028 | inactive: 0.054 | inactive: 0.078 | inactive: 0.073 | inactive: -0.014 | inactive: -0.204 | – | – | inactive: 0.116 | – | inactive: -0.012 | inactive: -0.104 | inactive: 0.02 | inactive: 0.017 | – | – |
| GTF3C6 (UniProt Q969F1) | inactive: -0.044 | inactive: 0.079 | inactive: -0.135 | inactive: 0.079 | inactive: -0.031 | inactive: 0.037 | inactive: 0.026 | inactive: 0.174 | – | inactive: -0.036 | inactive: 0.045 | inactive: -0.43 | inactive: -0.033 | inactive: 0.028 | inactive: -0.293 | – | inactive: 0.082 | inactive: 0.191 | inactive: -0.183 | inactive: 0.009 |
| GSPT2 (UniProt Q8IYD1) | inactive: 0.06 | inactive: 0.006 | inactive: 0.046 | inactive: 0.09 | inactive: 0.017 | – | inactive: -0.048 | inactive: -0.078 | inactive: 0.012 | inactive: -0.102 | inactive: -0.102 | inactive: 0.019 | inactive: -0.182 | inactive: 0.056 | inactive: -0.003 | inactive: -0.005 | inactive: -0.047 | inactive: -0.041 | inactive: 0.306 | inactive: 0.092 |
